No constants are given. Whether binding was seen depends on the method and setting. In cells and extracts the contact can be indirect. Some binding calls cover weakened binding; strength is not graded here.
Biological target: dynamin-related protein 1 (mouse (endogenous in BV2)) (UniProt Q8K1M6)
Assay: co-IP; 0.5 mg BV2 microglia total cell lysate incubated with anti-CDK5 or anti-DRP1 antibody at 4°C overnight, Protein G-Sepharose 2 h, four washes with ice-cold PBS, Western blot; both directions (IP: DRP1, WB: CDK5; IP: CDK5, WB: DRP1); IgG control

binding: binds
Substance: Cyclin-dependent kinase-5 (from UniProt P49615 1-292)
